In US11889833B2, “Protoporphyrinogen oxidase inhibitors” (Enko Chem, Inc., priority 2022, dated 2024):
Some of these results come from one statement about several compounds together.

What follows are compounds tested against T1, mutant ΔG210-AmPPO (Amaranthus tuberculatus, UniProt Q0NZW9, DEL211-211, form not given). Conditions: read-out: IC50 in the ΔG210 PPO in vitro assay.
T1 sequence (Q0NZW9 with tags, fused parts or gaps DEL211-211): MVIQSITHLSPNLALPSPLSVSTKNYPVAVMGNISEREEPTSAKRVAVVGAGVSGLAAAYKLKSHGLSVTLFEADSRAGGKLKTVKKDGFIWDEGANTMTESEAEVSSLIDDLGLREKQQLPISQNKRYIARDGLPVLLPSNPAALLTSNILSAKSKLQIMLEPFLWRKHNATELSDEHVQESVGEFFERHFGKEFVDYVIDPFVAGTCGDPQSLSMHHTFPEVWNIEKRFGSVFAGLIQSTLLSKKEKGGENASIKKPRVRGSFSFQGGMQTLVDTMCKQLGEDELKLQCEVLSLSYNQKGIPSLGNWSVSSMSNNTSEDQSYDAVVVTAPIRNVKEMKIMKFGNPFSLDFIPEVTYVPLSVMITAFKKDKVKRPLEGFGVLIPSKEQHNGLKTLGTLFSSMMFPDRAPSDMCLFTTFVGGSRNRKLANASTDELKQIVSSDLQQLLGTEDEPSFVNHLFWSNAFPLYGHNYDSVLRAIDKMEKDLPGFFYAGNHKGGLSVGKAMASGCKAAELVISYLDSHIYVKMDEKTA
Type: biochemical, Amaranthus tuberculatum
In the case of `O=C(NS(=O)(=O)c1cc(-c2c(F)cc(F)c(F)c2F)c(F)cc1Cl)c1ccccc1Cl` [Compound 30, 2-chloro-N-((4-chloro-2′,3′,4′,6,6′-pentafluoro-[1,1′-biphenyl]-3-yl)sulfonyl)benzamide], the IC50 is reported as < 1 µM.
For `O=C(NS(=O)(=O)c1cc(-c2c(F)cc(F)c(F)c2F)c(F)cc1Cl)C1CCSCC1` [Compound 37, N-((4-chloro-2′,3′,4′,6,6′-pentafluoro-[1,1′-biphenyl]-3-yl)sulfonyl)tetrahydro-2H-thiopyran-4-carboxamide], the IC50 was < 1 µM.
For `CC(C)(C)C(=O)NS(=O)(=O)c1cc(-c2c(F)cc(F)c(F)c2F)c(F)cc1Cl` [Compound 63, N-((4-chloro-2′,3′,4′,6,6′-pentafluoro-[1,1′-biphenyl]-3-yl)sulfonyl)pivalamide], the IC50 was < 1 µM.
For `CCC(=O)NS(=O)(=O)c1cc(-c2cc(F)c(F)c(F)c2F)c(F)cc1Cl` [Compound 53, N-((4-chloro-2′,3′,4′,5′,6-pentafluoro-[1,1′-biphenyl]-3-yl)sulfonyl)propionamide], the IC50 was < 0.1 µM.
For `O=C(Cc1cccc(Cl)c1)NS(=O)(=O)c1cc(-c2c(F)cc(F)c(F)c2F)c(F)cc1Cl` [Compound 44, N-((4-chloro-2′,3′,4′,6,6′-pentafluoro-[1,1′-biphenyl]-3-yl)sulfonyl)-2-(3-chlorophenyl)acetamide], the IC50 was < 0.1 µM.
`CC(C)CC(=O)NS(=O)(=O)c1cc(-c2c(F)cc(F)c(F)c2F)c(F)cc1Cl` [Compound 65, N-((4-chloro-2′,3′,4′,6,6′-pentafluoro-[1,1′-biphenyl]-3-yl)sulfonyl)-3-methylbutanamide] was tested, and the IC50 was < 0.1 µM.
In the case of `CCC(=O)NS(=O)(=O)c1cc(-c2c(F)cc(F)c(F)c2F)c(F)cc1Cl` [Compound 41, N-((4-chloro-2′,3′,4′,6,6′-pentafluoro-[1,1′-biphenyl]-3-yl)sulfonyl)-3,3,3,3,3,3,3,3,3,3,3-undecamethyl-λ^16-butanamide], the IC50 is reported as < 0.1 µM.
With `O=C1CCC(=O)N1S(=O)(=O)c1cc(-c2c(F)cc(F)c(F)c2F)c(F)cc1Cl` [Compound 70, 1-((4-chloro-2′,3′,4′,6,6′-pentafluoro-[1,1′-biphenyl]-3-yl)sulfonyl)pyrrolidine-2,5-dione] the IC50 was < 1 µM.
For `CCC(=O)NS(=O)(=O)c1cc(-c2c(F)c(F)c(F)c(F)c2F)c(F)cc1Cl` [Compound 18, N-((4-chloro-2′,3′,4′,5′,6,6′-hexafluoro-[1,1′-biphenyl]-3-yl)sulfonyl)propionamide], the IC50 was < 0.1 µM.
`CC(=O)C(=O)NS(=O)(=O)c1cc(-c2c(F)cc(F)c(F)c2F)c(F)cc1Cl` [Compound 77, N-((4-chloro-2′,3′,4′,6,6′-pentafluoro-[1,1′-biphenyl]-3-yl)sulfonyl)-2-oxopropanamide] was tested, and the IC50 was < 0.1 µM.
`C=C(C)C(=O)OCCOC(=O)[C@@H](C)Sc1cc(-c2c(F)c(F)c(F)c(F)c2F)c(F)cc1Cl` [Compound 14, (R)-2-((2-((4-chloro-2′,3′,4′,5′,6,6′-hexafluoro-[1,1′-biphenyl]-3-yl)thio)propanoyl)oxy)-ethyl methacrylate] was tested, and the IC50 was < 0.1 µM.
With `O=C(NS(=O)(=O)c1cc(-c2c(F)cc(F)c(F)c2F)c(F)cc1Cl)c1cccc(Cl)c1` [Compound 32, 3-chloro-N-((4-chloro-2′,3′,4′,6,6′-pentafluoro-[1,1′-biphenyl]-3-yl)sulfonyl)benzamide] the IC50 was < 0.1 µM.
With `O=C(NS(=O)(=O)c1cc(-c2c(F)cc(F)c(F)c2F)c(F)cc1Cl)C1CC1` [Compound 60, N-((4-chloro-2′,3′,4′,6,6′-pentafluoro-[1,1′-biphenyl]-3-yl)sulfonyl)cyclopropanecarboxamide] the IC50 was < 0.1 µM.
With `O=C(NS(=O)(=O)c1cc(-c2c(F)cc(F)c(F)c2F)c(F)cc1Cl)c1ccc(Cl)cc1` [Compound 31, 4-chloro-N-((4-chloro-2′,3′,4′,6,6′-pentafluoro-[1,1′-biphenyl]-3-yl)sulfonyl)benzamide] the IC50 was < 0.1 µM.
For `O=C(Cc1ccccc1Cl)NS(=O)(=O)c1cc(-c2c(F)cc(F)c(F)c2F)c(F)cc1Cl` [Compound 38, N-((4-chloro-2′,3′,4′,6,6′-pentafluoro-[1,1′-biphenyl]-3-yl)sulfonyl)-2-(2-chlorophenyl)acetamide], the IC50 was < 0.1 µM.
For `CONS(=O)(=O)c1cc(-c2c(F)cc(F)c(F)c2F)c(F)cc1Cl` [Compound 73, 4-chloro-2′,3′,4′,6,6′-pentafluoro-N-methoxy-[1,1′-biphenyl]-3-sulfonamide], the IC50 was < 1 µM.
With `COCC(=O)NS(=O)(=O)c1cc(-c2c(F)cc(F)c(F)c2F)c(F)cc1Cl` [Compound 47, N-((4-chloro-2′,3′,4′,6,6′-pentafluoro-[1,1′-biphenyl]-3-yl)sulfonyl)-2-methoxyacetamide] the IC50 was < 0.1 µM.
With `CCCC(=O)NS(=O)(=O)c1cc(-c2c(F)cc(F)c(F)c2F)c(F)cc1Cl` [Compound 56, N-((4-chloro-2′,3′,4′,6,6′-pentafluoro-[1,1′-biphenyl]-3-yl)sulfonyl)butyramide] the IC50 was < 0.1 µM.
In the case of `C[C@H](Sc1cc(-c2c(F)c(F)c(F)c(F)c2F)c(F)cc1Cl)C(=O)N1CCC[C@H]1C(=O)O` [Compound 11, ((S)-2-((4-chloro-2′,3′,4′,5′,6,6′-hexafluoro-[1,1′-biphenyl]-3-yl)thio)propanoyl)-L-proline], the IC50 is reported as < 1 µM.
`O=C(NS(=O)(=O)c1cc(-c2c(F)c(F)c(F)c(F)c2F)c(F)cc1Cl)C(F)(F)F` [Compound 24, N-((4-chloro-2′,3′,4′,5′,6,6′-hexafluoro-[1,1′-biphenyl]-3-yl)sulfonyl)-2,2,2-trifluoroacetamide] was tested, and the IC50 was < 0.1 µM.
`COC(=O)NS(=O)(=O)c1cc(-c2c(F)c(F)c(F)c(F)c2F)c(F)cc1Cl` [Compound 22, methyl ((4-chloro-2′,3′,4′,5′,6,6′-hexafluoro-[1,1′-biphenyl]-3-yl)sulfonyl)carbamate] was tested, and the IC50 was < 0.1 µM.
For `O=C(NS(=O)(=O)c1cc(-c2c(F)cc(F)c(F)c2F)c(F)cc1Cl)C1CCCCC1` [Compound 46, N-((4-chloro-2′,3′,4′,6,6′-pentafluoro-[1,1′-biphenyl]-3-yl)sulfonyl)cyclohexanecarboxamide], the IC50 was < 1 µM.
In the case of `COC(=O)CCNC(=O)[C@H](C)Sc1cc(-c2c(F)c(F)c(F)c(F)c2F)c(F)cc1Cl` [Compound 5, methyl (S)-3-(2-((4-chloro-2′,3′,4′,5′,6,6′-hexafluoro-[1,1′-biphenyl]-3-yl)thio)propanamido)propanoate], the IC50 is reported as < 1 µM.
For `O=C(Cc1ccccc1)NS(=O)(=O)c1cc(-c2c(F)c(F)c(F)c(F)c2F)c(F)cc1Cl` [Compound 21, N-((4-chloro-2′,3′,4′,5′,6,6′-hexafluoro-[1,1′-biphenyl]-3-yl)sulfonyl)-2-phenylacetamide], the IC50 was < 1 µM.
With `CC(C)CC(=O)NS(=O)(=O)c1cc(-c2c(F)c(F)c(F)c(F)c2F)c(F)cc1Cl` [Compound 20, N-((4-chloro-2′,3′,4′,5′,6,6′-hexafluoro-[1,1′-biphenyl]-3-yl)sulfonyl)-3-methylbutanamide] the IC50 was < 0.1 µM.
With `CC(=O)CS(=O)(=O)c1cc(-c2c(F)cc(F)c(F)c2F)c(F)cc1Cl` [Compound 78, 1-((4-chloro-2′,3′,4′,6,6′-pentafluoro-[1,1′-biphenyl]-3-yl)sulfonyl)propan-2-one] the IC50 was < 0.1 µM.
For `O=C(NS(=O)(=O)c1cc(-c2c(F)c(F)c(F)c(F)c2F)c(F)cc1Cl)c1ccccc1` [Compound 23, N-((4-chloro-2′,3′,4′,5′,6,6′-hexafluoro-[1,1′-biphenyl]-3-yl)sulfonyl)benzamide], the IC50 was < 0.1 µM.
`CCS(=O)(=O)NS(=O)(=O)c1cc(-c2c(F)cc(F)c(F)c2F)c(F)cc1Cl` [Compound 49, 4-chloro-N-(ethylsulfonyl)-2′,3′,4′,6,6′-pentafluoro-[1,1′-biphenyl]-3-sulfonamide] was tested, and the IC50 was < 1 µM.
For `COC(=O)[C@@H]1CCCN1C(=O)[C@H](C)Sc1cc(-c2c(F)c(F)c(F)c(F)c2F)c(F)cc1Cl` [Compound 9, methyl ((S)-2-((4-chloro-2′,3′,4′,5′,6,6′-hexafluoro-[1,1′-biphenyl]-3-yl)thio)propanoyl)-L -prolinate], the IC50 was < 1 µM.
In the case of `O=C(Cc1ccc(Cl)cc1)NS(=O)(=O)c1cc(-c2c(F)cc(F)c(F)c2F)c(F)cc1Cl` [Compound 29, N-((4-chloro-2′,3′,4′,6,6′-pentafluoro-[1,1′-biphenyl]-3-yl)sulfonyl)-2-(4-chlorophenyl)acetamide], the IC50 is reported as < 0.1 µM.
`CCC(=O)NS(=O)(=O)c1nc(-c2c(F)cc(F)c(F)c2F)c(F)cc1Cl` [Compound 71, N-((3-chloro-5-fluoro-6-(2,3,4,6-tetrafluorophenyl)pyridin-2-yl)sulfonyl)propionamide] was tested, and the IC50 was < 1 µM.
`CCC(=O)NS(=O)(=O)c1cc(-c2c(F)cc(F)c(F)c2F)c(F)cc1F` [Compound 50, N -((2′,3′,4,4′,6,6′-hexafluoro-[1,1′-biphenyl]-3-yl)sulfonyl)propionamide] was tested, and the IC50 was < 1 µM.
In the case of `CCC(=O)N(C)S(=O)(=O)c1cc(-c2c(F)cc(F)c(F)c2F)c(F)cc1Cl` [Compound 72, N-((4-chloro-2′,3′,4′,6,6′-pentafluoro-[1,1′-biphenyl]-3-yl)sulfonyl)-N-methylpropionamide], the IC50 is reported as < 1 µM.
For `CC(=O)NS(=O)(=O)c1cc(-c2c(F)cc(F)c(F)c2F)c(F)cc1Cl` [Compound 27, N-((4-chloro-2′,3′,4′,6,6′-pentafluoro-[1,1′-biphenyl]-3-yl)sulfonyl)acetamide], the IC50 was < 0.1 µM.
